Results taken from the supplement of paper PMC10849652.
This is one part of the list.

Protein sequences, listed by entry. Tags and fused reporters are not part of them. Lines headed by an entry give the natural chain unless they say otherwise; changes in a name come on top.
UniProt Q5T1C6: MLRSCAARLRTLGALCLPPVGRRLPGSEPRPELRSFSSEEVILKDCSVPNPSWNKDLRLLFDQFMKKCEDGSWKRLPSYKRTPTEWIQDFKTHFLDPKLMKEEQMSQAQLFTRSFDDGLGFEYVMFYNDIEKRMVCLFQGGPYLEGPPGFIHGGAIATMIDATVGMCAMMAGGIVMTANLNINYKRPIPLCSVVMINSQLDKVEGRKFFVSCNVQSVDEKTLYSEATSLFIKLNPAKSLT
UniProt Q9BTF0: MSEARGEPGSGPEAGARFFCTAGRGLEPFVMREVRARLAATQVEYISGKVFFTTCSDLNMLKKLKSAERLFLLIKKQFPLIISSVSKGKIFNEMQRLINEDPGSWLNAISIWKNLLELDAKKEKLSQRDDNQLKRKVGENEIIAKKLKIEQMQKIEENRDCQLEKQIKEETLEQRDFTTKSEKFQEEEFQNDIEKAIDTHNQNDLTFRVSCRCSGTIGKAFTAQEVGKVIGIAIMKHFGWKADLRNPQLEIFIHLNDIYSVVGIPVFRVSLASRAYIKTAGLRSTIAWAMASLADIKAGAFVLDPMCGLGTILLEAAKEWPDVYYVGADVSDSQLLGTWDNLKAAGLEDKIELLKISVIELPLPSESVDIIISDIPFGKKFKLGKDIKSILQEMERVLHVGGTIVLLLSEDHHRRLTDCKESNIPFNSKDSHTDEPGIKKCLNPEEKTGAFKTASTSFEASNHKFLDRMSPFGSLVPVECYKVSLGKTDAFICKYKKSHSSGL
UniProt Q9BZW5, whole entry, looked up: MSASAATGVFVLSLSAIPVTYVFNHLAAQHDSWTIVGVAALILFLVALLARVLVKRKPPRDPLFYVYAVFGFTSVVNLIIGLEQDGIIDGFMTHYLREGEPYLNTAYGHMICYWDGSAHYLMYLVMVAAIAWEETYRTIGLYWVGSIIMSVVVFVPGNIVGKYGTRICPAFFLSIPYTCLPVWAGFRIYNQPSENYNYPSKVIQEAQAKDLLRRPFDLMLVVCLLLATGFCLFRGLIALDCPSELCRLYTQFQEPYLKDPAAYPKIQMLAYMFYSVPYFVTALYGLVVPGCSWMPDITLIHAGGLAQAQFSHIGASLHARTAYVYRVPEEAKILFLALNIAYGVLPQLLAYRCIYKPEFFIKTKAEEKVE
UniProt Q8NDZ6: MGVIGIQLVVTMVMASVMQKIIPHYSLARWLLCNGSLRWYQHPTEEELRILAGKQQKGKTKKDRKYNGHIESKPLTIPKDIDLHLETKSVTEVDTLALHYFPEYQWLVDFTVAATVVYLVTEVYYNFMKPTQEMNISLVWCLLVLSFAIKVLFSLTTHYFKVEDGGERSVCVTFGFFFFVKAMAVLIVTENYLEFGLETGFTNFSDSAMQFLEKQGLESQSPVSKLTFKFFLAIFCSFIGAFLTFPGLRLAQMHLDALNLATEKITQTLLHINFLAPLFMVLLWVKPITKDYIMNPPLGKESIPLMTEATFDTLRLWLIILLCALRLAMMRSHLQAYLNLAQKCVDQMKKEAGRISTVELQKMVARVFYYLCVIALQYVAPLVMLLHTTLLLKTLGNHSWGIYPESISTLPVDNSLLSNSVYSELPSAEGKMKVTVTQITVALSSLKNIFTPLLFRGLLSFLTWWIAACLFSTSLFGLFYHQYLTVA
UniProt Q8N131: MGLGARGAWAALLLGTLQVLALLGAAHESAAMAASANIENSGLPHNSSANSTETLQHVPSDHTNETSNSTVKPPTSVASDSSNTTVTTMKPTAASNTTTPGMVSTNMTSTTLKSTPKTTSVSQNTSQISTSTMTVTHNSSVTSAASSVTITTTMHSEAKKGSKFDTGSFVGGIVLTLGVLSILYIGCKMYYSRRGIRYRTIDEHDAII
UniProt Q6YHU6: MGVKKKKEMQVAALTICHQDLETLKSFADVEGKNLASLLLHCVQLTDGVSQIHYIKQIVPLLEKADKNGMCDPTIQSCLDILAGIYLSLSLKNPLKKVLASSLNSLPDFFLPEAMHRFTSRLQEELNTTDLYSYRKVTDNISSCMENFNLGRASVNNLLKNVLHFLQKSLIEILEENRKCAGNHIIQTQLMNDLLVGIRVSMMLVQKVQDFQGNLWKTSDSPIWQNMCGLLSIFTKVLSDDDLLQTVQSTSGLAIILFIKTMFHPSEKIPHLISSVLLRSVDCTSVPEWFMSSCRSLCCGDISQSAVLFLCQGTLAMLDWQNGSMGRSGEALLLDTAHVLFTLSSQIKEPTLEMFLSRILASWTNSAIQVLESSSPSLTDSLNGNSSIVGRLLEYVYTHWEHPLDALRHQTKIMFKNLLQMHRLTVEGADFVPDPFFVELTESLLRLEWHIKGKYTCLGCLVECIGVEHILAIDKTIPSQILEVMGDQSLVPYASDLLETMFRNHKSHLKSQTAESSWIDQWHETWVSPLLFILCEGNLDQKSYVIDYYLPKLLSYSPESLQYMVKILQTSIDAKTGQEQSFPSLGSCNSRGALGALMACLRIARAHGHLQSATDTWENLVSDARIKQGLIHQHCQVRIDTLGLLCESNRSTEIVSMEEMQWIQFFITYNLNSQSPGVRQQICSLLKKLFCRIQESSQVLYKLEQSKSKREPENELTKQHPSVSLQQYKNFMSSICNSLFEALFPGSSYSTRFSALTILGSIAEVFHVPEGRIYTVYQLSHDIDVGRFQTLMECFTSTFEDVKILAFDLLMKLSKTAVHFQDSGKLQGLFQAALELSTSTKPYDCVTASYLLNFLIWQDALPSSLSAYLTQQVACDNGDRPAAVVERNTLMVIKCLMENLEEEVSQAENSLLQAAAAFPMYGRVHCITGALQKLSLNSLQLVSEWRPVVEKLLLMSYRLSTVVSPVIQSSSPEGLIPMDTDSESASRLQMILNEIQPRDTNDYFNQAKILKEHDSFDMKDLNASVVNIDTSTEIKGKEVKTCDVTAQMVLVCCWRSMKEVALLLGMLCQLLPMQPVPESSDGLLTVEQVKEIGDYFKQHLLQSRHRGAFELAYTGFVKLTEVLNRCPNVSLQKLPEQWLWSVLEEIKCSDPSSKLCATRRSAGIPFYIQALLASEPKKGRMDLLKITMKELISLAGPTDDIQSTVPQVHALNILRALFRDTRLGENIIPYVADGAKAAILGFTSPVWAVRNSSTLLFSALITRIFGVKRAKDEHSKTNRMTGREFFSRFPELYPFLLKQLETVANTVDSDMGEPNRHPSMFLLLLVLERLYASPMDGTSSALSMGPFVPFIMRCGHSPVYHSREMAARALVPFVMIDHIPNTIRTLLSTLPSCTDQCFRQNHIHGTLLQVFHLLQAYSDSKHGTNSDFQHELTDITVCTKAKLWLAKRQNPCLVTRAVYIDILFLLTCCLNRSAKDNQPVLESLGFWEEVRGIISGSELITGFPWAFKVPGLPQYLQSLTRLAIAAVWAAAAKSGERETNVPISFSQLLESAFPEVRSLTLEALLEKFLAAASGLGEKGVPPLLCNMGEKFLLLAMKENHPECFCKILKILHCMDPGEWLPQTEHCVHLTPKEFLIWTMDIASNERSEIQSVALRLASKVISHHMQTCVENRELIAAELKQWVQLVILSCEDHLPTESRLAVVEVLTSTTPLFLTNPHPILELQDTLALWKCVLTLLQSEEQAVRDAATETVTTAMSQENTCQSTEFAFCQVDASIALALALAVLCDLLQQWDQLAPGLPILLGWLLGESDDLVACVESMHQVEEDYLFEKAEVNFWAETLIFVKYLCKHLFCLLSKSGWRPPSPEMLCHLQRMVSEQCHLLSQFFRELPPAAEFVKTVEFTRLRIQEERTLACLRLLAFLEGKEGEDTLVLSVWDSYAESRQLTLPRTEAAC
UniProt Q96I45: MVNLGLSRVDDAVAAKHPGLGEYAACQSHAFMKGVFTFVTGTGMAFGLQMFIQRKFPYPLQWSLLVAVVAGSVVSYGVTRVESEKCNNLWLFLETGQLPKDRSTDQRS
UniProt Q13445: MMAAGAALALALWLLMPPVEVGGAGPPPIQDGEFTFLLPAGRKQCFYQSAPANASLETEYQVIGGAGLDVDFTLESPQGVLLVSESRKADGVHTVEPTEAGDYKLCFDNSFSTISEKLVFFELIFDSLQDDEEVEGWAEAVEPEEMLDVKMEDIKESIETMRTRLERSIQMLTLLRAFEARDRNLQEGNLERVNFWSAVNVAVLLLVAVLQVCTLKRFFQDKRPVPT
UniProt Q9NR96: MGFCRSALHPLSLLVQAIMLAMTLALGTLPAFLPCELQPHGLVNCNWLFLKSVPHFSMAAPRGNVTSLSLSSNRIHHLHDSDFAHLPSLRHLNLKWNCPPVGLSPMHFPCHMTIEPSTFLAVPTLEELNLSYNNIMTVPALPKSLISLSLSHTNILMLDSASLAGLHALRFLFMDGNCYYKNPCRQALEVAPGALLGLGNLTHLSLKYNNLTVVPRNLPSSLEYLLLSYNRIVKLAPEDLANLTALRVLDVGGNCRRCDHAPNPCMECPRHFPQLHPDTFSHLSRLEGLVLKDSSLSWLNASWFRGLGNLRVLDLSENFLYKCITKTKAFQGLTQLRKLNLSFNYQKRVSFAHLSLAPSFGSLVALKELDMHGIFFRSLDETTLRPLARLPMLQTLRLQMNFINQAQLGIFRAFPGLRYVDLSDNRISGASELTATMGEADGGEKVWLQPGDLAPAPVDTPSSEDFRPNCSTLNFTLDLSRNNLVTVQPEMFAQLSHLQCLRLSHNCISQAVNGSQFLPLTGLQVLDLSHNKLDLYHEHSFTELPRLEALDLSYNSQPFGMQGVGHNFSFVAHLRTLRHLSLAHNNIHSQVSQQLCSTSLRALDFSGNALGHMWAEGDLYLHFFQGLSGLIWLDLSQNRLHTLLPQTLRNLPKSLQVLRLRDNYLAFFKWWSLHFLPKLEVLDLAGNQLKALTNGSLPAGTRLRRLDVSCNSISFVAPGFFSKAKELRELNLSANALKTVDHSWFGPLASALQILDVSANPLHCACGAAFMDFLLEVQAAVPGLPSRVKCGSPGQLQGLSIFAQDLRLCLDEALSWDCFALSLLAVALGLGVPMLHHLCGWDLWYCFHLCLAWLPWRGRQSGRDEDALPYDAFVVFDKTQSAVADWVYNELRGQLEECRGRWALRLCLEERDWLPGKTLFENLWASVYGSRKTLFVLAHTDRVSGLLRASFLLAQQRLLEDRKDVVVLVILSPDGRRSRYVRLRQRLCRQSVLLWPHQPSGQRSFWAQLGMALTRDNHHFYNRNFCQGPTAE
UniProt Q9Y5J6: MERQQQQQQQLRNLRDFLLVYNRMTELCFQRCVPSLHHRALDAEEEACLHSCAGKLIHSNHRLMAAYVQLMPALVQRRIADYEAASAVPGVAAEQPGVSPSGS
UniProt Q9BV44: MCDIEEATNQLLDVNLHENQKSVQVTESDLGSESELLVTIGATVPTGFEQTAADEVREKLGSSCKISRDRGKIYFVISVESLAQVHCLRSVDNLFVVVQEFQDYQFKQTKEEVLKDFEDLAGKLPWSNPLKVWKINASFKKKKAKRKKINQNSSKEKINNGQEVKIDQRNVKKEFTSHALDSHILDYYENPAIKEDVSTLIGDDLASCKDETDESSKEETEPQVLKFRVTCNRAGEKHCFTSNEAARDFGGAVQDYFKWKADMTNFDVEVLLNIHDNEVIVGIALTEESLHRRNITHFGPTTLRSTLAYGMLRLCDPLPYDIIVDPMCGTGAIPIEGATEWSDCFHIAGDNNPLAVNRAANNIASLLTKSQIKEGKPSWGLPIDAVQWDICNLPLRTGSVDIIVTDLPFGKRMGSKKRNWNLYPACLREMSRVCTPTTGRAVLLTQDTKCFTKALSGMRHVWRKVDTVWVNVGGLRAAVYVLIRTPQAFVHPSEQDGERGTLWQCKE
UniProt Q04726: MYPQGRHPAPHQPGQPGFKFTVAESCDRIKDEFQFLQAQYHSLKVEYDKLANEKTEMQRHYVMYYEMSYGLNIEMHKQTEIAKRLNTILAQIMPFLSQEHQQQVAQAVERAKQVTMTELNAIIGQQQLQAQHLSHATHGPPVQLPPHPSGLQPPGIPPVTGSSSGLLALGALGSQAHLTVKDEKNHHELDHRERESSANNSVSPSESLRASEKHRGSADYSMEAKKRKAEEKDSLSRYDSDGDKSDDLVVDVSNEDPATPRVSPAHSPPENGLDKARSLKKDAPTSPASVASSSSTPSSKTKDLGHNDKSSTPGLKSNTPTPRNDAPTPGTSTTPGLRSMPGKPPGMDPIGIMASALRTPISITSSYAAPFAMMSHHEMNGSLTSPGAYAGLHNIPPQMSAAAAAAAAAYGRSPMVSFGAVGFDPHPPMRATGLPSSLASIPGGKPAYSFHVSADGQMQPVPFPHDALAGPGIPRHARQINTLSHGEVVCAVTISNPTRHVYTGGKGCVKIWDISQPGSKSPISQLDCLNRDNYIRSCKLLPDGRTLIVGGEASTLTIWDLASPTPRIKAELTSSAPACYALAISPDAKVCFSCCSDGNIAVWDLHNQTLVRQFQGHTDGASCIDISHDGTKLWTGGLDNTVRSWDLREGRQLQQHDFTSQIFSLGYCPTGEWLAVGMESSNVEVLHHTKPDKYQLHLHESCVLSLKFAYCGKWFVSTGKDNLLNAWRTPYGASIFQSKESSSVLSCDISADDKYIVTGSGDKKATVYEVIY

Tests used:
Assay in all cases: log2 fold change, soluble protein after heating vs DMSO (PISA); higher = thermal stabilisation; K562 lysate, 10 uM; active = over 0.2 and 3.5 SD of the protein, either way, in both replicates (recomputed)
erlotinib = compound: C#Cc1cccc(Nc2ncnc3cc(OCCOC)c(OCCOC)cc23)c1 [erlotinib]
In short: (§1)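 Quantification was by TMTpro 16plex LC-MS/MS with equalised channel sums, applied to the supernatant after 21,000xg for 90 min. Samples were crude K562 extract at 1 mg/mL protein in PBS pH 7.4 with 1 mM MgCl2, treated with 10 μM compound for 30 min, heated for 3 min across 48°C-58°C, pooled and brought to 0.5% NP-40 at 4°C. Values are log-two fold changes in thermal stability relative to solvent controls, from duplicates.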

[1] = compound: C/C(=N\NC(=O)C1=CC(=CC=C1)S(=O)(=O)N2CCOCC2)/C3=C(C=CC(=C3)Cl)O
In short: as §1

[2] = compound: C1=CC(=CC=C1C2=NC3=C(N2)C=C(C=C3)C(=O)N)OC4=CC=C(C=C4)Cl
In short: as §1

[3] = compound: C1=CC2=C(C=CC(=C2)/C=C\3/C(=O)NC(=NCC4=CC=CS4)S3)N=C1
In short: as §1

[4] = compound: C1=CC2=NC=CN=C2C=C1/C=C/3\C(=O)NC(=O)S3
In short: as §1

[5] = compound: C1=CC=C(C=C1)C2=NC(=C(N2)C3=CC=NC=C3)C4=CC(=C(C=C4)Cl)O
In short: as §1

[6] = compound: C1=CC=C2C(=C1)C3=NNC4=CC=CC(=C43)C2=O
In short: as §1

[7] = compound: C1CCN(C1)C(=O)NC2=CC=CC(=C2)NC3=NC=C(C(=N3)NCCC4=CN=CN4)Br
In short: as §1

[8] = compound: C1CN(CCC1(CC2=CC=C(C=C2)Cl)N)C3=NC=NC4=C3C=CN4
In short: as §1

IRAK-1-4 Inhibitor I = compound: C1COCCN1CCN2C3=CC=CC=C3N=C2NC(=O)C4=CC(=CC=C4)[N+](=O)[O-] [IRAK-1-4 Inhibitor I]
In short: as §1

ibrutinib = compound: C=CC(=O)N1CCC[C@@H](n2nc(-c3ccc(Oc4ccccc4)cc3)c3c(N)ncnc32)C1 [ibrutinib]
In short: as §1

[9] = compound: CC(=O)c1cnc2ccc(-c3cc(Cl)c(O)c(Cl)c3)nc2c1N[C@H]1CC[C@H](CN(C)C)CC1
In short: as §1

ralimetinib = compound: CC(C)(C)Cn1c(N)nc2ccc(-c3[nH]c(C(C)(C)C)nc3-c3ccc(F)cc3)nc21 [ralimetinib]
In short: as §1

[10] = compound: CC(C)(O)CC(=O)NCCn1ccc2ncnc(Nc3ccc(Oc4cccc(C(F)(F)F)c4)c(Cl)c3)c21
In short: as §1

[11] = compound: CC(C)C1=C2N=C(C=C(N2N=C1)NCC3=CC=CC=C3)NCCCCCCN
In short: as §1

[12] = compound: CC1=C(C(CC(=O)N1)C2=CC=C(C=C2)C(F)(F)F)C(=O)NC3=C(C=C4C(=C3)C=NN4)F
In short: as §1

[13] = compound: CC1=C(C2=C(C=C1)C(=O)C3=CC=CC=C3N2CCCN)C
In short: as §1

[14] = compound: CC1=C(C=C(C=C1)NC(=O)C2=CC(=CC=C2)C(C)(C)C#N)NC3=CC4=C(C=C3)N=CN(C4=O)C
In short: as §1

[15] = compound: CC1=C(C=C(C=C1)NC(=O)C2=CC(=CC=C2)N(C)C)NC(=O)C3=CC=C(C=C3)O
In short: as §1

[16] = compound: CC1=CC=C(C=C1)SC2=C3C=C(SC3=CN=C2)C(=O)N
In short: as §1

Measured: log2 fold change

THEM4 (UniProt Q5T1C6)
inactive: erlotinib 0.007 | [1] -0.155 | [2] 0.02 | [3] 0.017 | [4] -0.033 | [5] 0.019 | [6] 0.032 | [7] -0.025 | [8] 0.035 | IRAK-1-4 Inhibitor I -0.004 | ibrutinib 0.016 | [9] 0.046 | ralimetinib 0.041 | [10] -0.006 | [11] -0.034 | [12] -0.009 | [13] -0.018 | [14] 0.043 | [15] -0.031 | [16] -0.024

THUMPD2 (UniProt Q9BTF0)
inactive: erlotinib -0.013 | [1] 0.05 | [2] -0.034 | [3] -0.051 | [4] -0.007 | [5] -0.029 | [6] -0.004 | [7] 0.002 | [8] 0.031 | IRAK-1-4 Inhibitor I 0.068 | ibrutinib 0.027 | [9] 0.018 | ralimetinib 0.036 | [10] 0.044 | [11] 0.011 | [12] -0.014 | [13] -0.012 | [14] -0.015 | [15] -0.03 | [16] 0.038

TICAM2 isoform 2 (UniProt Q86XR7)
inactive: erlotinib 0.035 | [1] 0.008 | [2] -0.017 | [3] 0.018 | [4] 0.019 | [5] 0.027 | [6] -0.024 | [7] 0.007 | [8] -0.007 | IRAK-1-4 Inhibitor I 0.029 | ibrutinib 0.017 | [9] 0.013 | ralimetinib -0.048 | [10] 0.016 | [11] 0.032 | [12] 0.015 | [13] 0.045 | [14] -0.007 | [15] 0.017 | [16] -0.006

TM6SF1 (UniProt Q9BZW5)
inactive: erlotinib -0.083 | [1] -0.004 | [2] 0.074 | [3] -0.088 | [4] -0.045 | [6] 0.109 | [7] -0.01 | [8] 0.084 | ibrutinib -0.032 | [9] -0.012 | [11] 0.079 | [13] -0.102 | [14] -0.083 | [16] -0.042

TMEM161B (UniProt Q8NDZ6)
inactive: erlotinib 0.051 | [1] -0.08 | [2] -0.017 | [3] 0.174 | [4] 0.007 | [5] -0.068 | [6] -0.133 | [7] 0.052 | [8] -0.01 | IRAK-1-4 Inhibitor I 0.09 | ibrutinib -0.026 | [9] 0.197 | ralimetinib 0 | [10] -0.224 | [11] -0.113 | [12] -0.005 | [14] 0.027 | [15] 0.108 | [16] -0.012

TMC6 (UniProt Q7Z403)
inactive: erlotinib -0.008 | [1] -0.018 | [2] -0.182 | [3] -0.084 | [5] 0.047 | [6] 0.061 | IRAK-1-4 Inhibitor I 0.027 | [9] 0.182 | ralimetinib 0.039 | [10] -0.067 | [11] -0.039 | [12] 0.08 | [14] 0.04 | [15] 0.01 | [16] -0.027

TMEM123 (UniProt Q8N131)
inactive: erlotinib -0.083 | [1] 0.077 | [2] -0.102 | [3] 0.01 | [4] 0.07 | [5] 0.006 | [6] 0.036 | [7] 0.052 | [8] -0.034 | IRAK-1-4 Inhibitor I 0.041 | ibrutinib 0.1 | [9] 0.044 | ralimetinib 0.067 | [10] -0.024 | [11] 0.02 | [12] -0.021 | [13] 0.074 | [15] -0.017 | [16] 0.019

THADA (UniProt Q6YHU6)
inactive: erlotinib 0.059 | [1] -0.003 | [2] 0 | [3] 0.004 | [4] -0.011 | [5] -0.004 | [6] -0.017 | [7] -0.024 | [8] 0.017 | IRAK-1-4 Inhibitor I -0.017 | ibrutinib 0.011 | [9] 0.006 | ralimetinib -0.009 | [10] -0.029 | [11] -0.016 | [12] -0.01 | [13] 0.012 | [14] 0.028 | [15] 0.03 | [16] 0.013

TMEM141 (UniProt Q96I45)
inactive: erlotinib 0.037 | [1] -0.102 | [2] 0.153 | [3] 0.081 | [4] -0.032 | [5] -0.056 | [6] 0.005 | IRAK-1-4 Inhibitor I 0.056 | ibrutinib -0.069 | [9] -0.035 | ralimetinib -0.126 | [10] -0.243 | [11] -0.049 | [12] 0.108 | [13] -0.161 | [14] 0.021 | [15] 0.025 | [16] -0.089

TIGAR (UniProt Q9NQ88)
inactive: erlotinib -0.008 | [1] 0.219 | [2] -0.023 | [3] -0.143 | [5] -0.146 | [6] 0.145 | [7] 0.052 | [8] 0.059 | IRAK-1-4 Inhibitor I 0.257 | ralimetinib 0.28 | [10] 0.068 | [11] 0.041 | [13] -0.018 | [14] 0.169 | [15] -0.207

TMED1 (UniProt Q13445)
inactive: erlotinib -0.21 | [1] -0.074 | [2] 0.056 | [3] 0.051 | [4] -0.034 | [5] 0.114 | [6] -0.152 | [7] -0.032 | [8] -0.04 | IRAK-1-4 Inhibitor I -0.101 | ibrutinib 0.085 | [9] 0.017 | ralimetinib -0.035 | [10] -0.042 | [11] -0.108 | [12] -0.023 | [13] -0.129 | [14] -0.058 | [15] -0.01 | [16] -0.059

TLR9 isoform 4 (UniProt Q9NR96)
inactive: erlotinib -0.086 | [1] 0.054 | [2] 0.104 | [3] 0.009 | [4] -0.063 | [5] -0.044 | [6] 0.085 | [7] 0.02 | [8] 0.024 | IRAK-1-4 Inhibitor I -0.009 | ibrutinib 0 | [9] 0.023 | ralimetinib 0.015 | [10] 0.008 | [11] -0.047 | [12] -0.045 | [13] 0.06 | [14] -0.035 | [15] 0 | [16] -0.01

TIMM10B (UniProt Q9Y5J6)
inactive: erlotinib 0.116 | [1] 0.07 | [2] -0.083 | [3] 0.033 | [4] 0.078 | [5] -0.006 | [6] 0.103 | IRAK-1-4 Inhibitor I -0.049 | ibrutinib -0.027 | ralimetinib 0.065 | [10] -0.077 | [11] -0.048 | [13] -0.02 | [14] 0.104 | [15] -0.045

THUMPD3 (UniProt Q9BV44)
inactive: erlotinib 0.007 | [1] 0.031 | [2] 0.067 | [3] 0.009 | [4] -0.009 | [5] 0.024 | [6] 0.015 | [7] 0 | [8] 0.034 | IRAK-1-4 Inhibitor I 0.042 | ibrutinib -0.022 | [9] -0.014 | ralimetinib -0.012 | [10] -0.021 | [11] 0.007 | [12] -0.015 | [13] -0.015 | [14] 0.028 | [15] -0.01 | [16] -0.009

TLE3 isoform 4 (UniProt Q04726)
inactive: erlotinib 0.005 | [1] -0.025 | [2] 0.03 | [3] -0.012 | [4] 0 | [5] 0.016 | [6] -0.002 | [7] -0.006 | [8] 0.029 | IRAK-1-4 Inhibitor I -0.016 | ibrutinib -0.002 | [9] -0.01 | ralimetinib 0.003 | [10] -0.005 | [11] 0 | [12] -0.023 | [13] 0.012 | [14] -0.016 | [15] 0.003 | [16] -0.022

Two entries drawn at random from those above:
TLE3 isoform 4 (UniProt Q04726)
inactive: erlotinib 0.005 | [1] -0.025 | [2] 0.03 | [3] -0.012 | [4] 0 | [5] 0.016 | [6] -0.002 | [7] -0.006 | [8] 0.029 | IRAK-1-4 Inhibitor I -0.016 | ibrutinib -0.002 | [9] -0.01 | ralimetinib 0.003 | [10] -0.005 | [11] 0 | [12] -0.023 | [13] 0.012 | [14] -0.016 | [15] 0.003 | [16] -0.022

TLR9 isoform 4 (UniProt Q9NR96)
inactive: erlotinib -0.086 | [1] 0.054 | [2] 0.104 | [3] 0.009 | [4] -0.063 | [5] -0.044 | [6] 0.085 | [7] 0.02 | [8] 0.024 | IRAK-1-4 Inhibitor I -0.009 | ibrutinib 0 | [9] 0.023 | ralimetinib 0.015 | [10] 0.008 | [11] -0.047 | [12] -0.045 | [13] 0.06 | [14] -0.035 | [15] 0 | [16] -0.01

Remaining list, next part:

TK1 (UniProt K7ERV3)
inactive: erlotinib 0.01 | [1] -0.061 | [2] 0.078 | [3] -0.047 | [4] -0.114 | [5] 0.048 | [6] 0.036 | [7] 0.017 | [8] 0.222 | IRAK-1-4 Inhibitor I 0.04 | ibrutinib 0.175 | ralimetinib -0.018 | [10] -0.061 | [11] -0.114 | [12] -0.013 | [13] -0.023 | [14] 0.032 | [15] -0.028
